# Laboratory results taken from publication PMC9925322.
# Results are given in words; binding and its absence hold for the method and conditions named. Binding seen in cells or lysates may run through a third protein. Some results given as binding are weak or reduced against the parent protein; the word gives no strength. Where a sequence is shown, tags or fusion partners need not be part of it.
# T1: Flag-PTP4A1 (protein tyrosine phosphatase type IVA 1) (UniProt Q93096)
# T1 sequence: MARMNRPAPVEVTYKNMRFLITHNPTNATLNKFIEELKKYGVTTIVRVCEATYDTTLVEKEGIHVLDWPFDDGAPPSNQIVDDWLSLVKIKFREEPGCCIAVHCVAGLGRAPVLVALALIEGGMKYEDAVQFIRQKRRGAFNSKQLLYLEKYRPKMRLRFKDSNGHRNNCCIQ
# Biological target: T1, Flag-PTP4A1 (protein tyrosine phosphatase type IVA 1)
# Assay: co-IP; HEK293T cells co-transfected; lysates immunoprecipitated with anti-Flag antibody overnight at 4 °C, protein G-Sepharose beads 2 h at 4 °C; Western blot
row,binding,Binder
1,binds,"HA-CREBH(F), the inactive form of cyclic adenosine monophosphate-responsive element-binding protein H (protein, UniProt Q68CJ9 1-461) MNTDLAAGKMASAACSMDPIDSFELLDLLFDRQDGILRHVELGEGWGHVKDQQVLPNPDSDDFLSSILGSGDSLPSSPLWSPEGSDSGISEDLPSDPQDTPPRSGPATSPAGCHPAQPGKGPCLSYHPGNSCSTTTPGPVIQVPEASVTIDLEMWSPGGRICAEKPADPVDLSPRCNLTVKDLLLSGSSGDLQQHHLGASYLLRPGAGHCQELVLTEDEKKLLAKEGITLPTQLPLTKYEERVLKKIRRKIRNKQSAQESRKKKKEYIDGLETRMSACTAQNQELQRKVLHLEKQNLSLLEQLKKLQAIVVQSTSKSAQTGTCVAVLLLSFALIILPSISPFGPNKTESPGDFAPVRVFSRTLHNDAASRVAADAVPGSEAPGPRPEADTTREESPGSPGADWGFQDTANLTNSTEELDNATLVLRNATEGLGQVALLDWVAPGPSTGSGRAGLEAAGDEL"
2,no binding,"peroxisome proliferator-activated receptor α (PPARα) (protein, UniProt Q07869 1-468) MVDTESPLCPLSPLEAGDLESPLSEEFLQEMGNIQEISQSIGEDSSGSFGFTEYQYLGSCPGSDGSVITDTLSPASSPSSVTYPVVPGSVDESPSGALNIECRICGDKASGYHYGVHACEGCKGFFRRTIRLKLVYDKCDRSCKIQKKNRNKCQYCRFHKCLSVGMSHNAIRFGRMPRSEKAKLKAEILTCEHDIEDSETADLKSLAKRIYEAYLKNFNMNKVKARVILSGKASNNPPFVIHDMETLCMAEKTLVAKLVANGIQNKEAEVRIFHCCQCTSVETVTELTEFAKAIPGFANLDLNDQVTLLKYGVYEAIFAMLSSVMNKDGMLVAYGNGFITREFLKSLRKPFCDIMEPKFDFAMKFNALELDDSDISLFVAAIICCGDRPGLLNVGHIEKMQEGIVHVLRLHLQSNHPDDIFLFPKLLQKMADLRQLVTEHAQLVQIIKKTESDAALHPLLQEIYRDMY"
